From the supplement of paper PMC4604168 (melanoma cell lines)
This is one part of the list. Many values rest on one well or one pass, so single values are uncertain.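 Cells were imaged in 1,536-well plates, and nuclei stained with an antibody against cleaved PARP were counted against all DNA-stained nuclei to give the apoptosis fraction. Screening doses were chosen to leave most cells alive, and resting and induced cleaved-PARP levels differ strongly between cell lines.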

Columns and labels:
Test in all cases: cleaved PARP positive nuclei fraction relative to DMSO control; melanoma cells; higher = more apoptosis
Details in all cases: library dose: low library concentration; 72 h
[1] = system: 501Mel
[2] = system: A101D
[3] = system: A2058
[4] = system: C32
[5] = system: CBRC008 (line from a melanoma biopsy)
[6] = system: CBRC014 (line from a melanoma biopsy)
[7] = system: CBRC016 (line from a melanoma biopsy)
[8] = system: CBRC017 (line from a melanoma biopsy)
[9] = system: A375
[10] = system: CBRC013 (line from a melanoma biopsy)

| SMILES | cleaved PARP positive nuclei fraction [1] | cleaved PARP positive nuclei fraction [2] | cleaved PARP positive nuclei fraction [3] | cleaved PARP positive nuclei fraction [4] | cleaved PARP positive nuclei fraction [5] | cleaved PARP positive nuclei fraction [6] | cleaved PARP positive nuclei fraction [7] | cleaved PARP positive nuclei fraction [8] | cleaved PARP positive nuclei fraction [9] | cleaved PARP positive nuclei fraction [10] |
| --- | --- | --- | --- | --- | --- | --- | --- | --- | --- | --- |
| O=c1[nH]nc(Sc2ncc([N+](=O)[O-])s2)n1-c1ccc2c(c1)OCCO2 + COc1cc(N2CCC(N3CCN(C)CC3)CC2)ccc1Nc1ncc(Cl)c(Nc2ccccc2S(=O)(=O)C(C)C)n1 [NVP-TAE684] (first compound 0.2 µM, partner dose 0.08 µM) | 60.7% | 26.9% | 106% | 87.4% | 149% | 103% | 28.5% | 47.9% | – | – |
| Cc1cc(Nc2cc(N3CCN(C)CC3)nc(Sc3ccc(NC(=O)C4CC4)cc3)n2)n[nH]1 [Tozasertib] + Cc1cc(Nc2cc(N3CCN(C)CC3)nc(/C=C/c3ccccc3)n2)n[nH]1 [ENMD2076] (first compound 0.006 µM, partner dose 0.04 µM) | – | 110% | 107% | 67.3% | 117% | 100% | 117% | 115% | 210% | – |
| CCCCCCCCCCCCCCCCCCOP(=O)([O-])OC1CC[N+](C)(C)CC1 [Perifosine] + COC(=O)c1sccc1S(=O)(=O)Nc1ccc(Nc2ccccc2)cc1OC [GSK0660] (first compound 0.4 µM, partner dose 1 µM) | 57.8% | 51.4% | 54.1% | 157% | 134% | 83.4% | 79.1% | 95.6% | – | – |
| O=c1[nH]nc(Sc2ncc([N+](=O)[O-])s2)n1-c1ccc2c(c1)OCCO2 + C=CCn1c(=O)c2cnc(Nc3ccc(N4CCN(C)CC4)cc3)nc2n1-c1cccc(C(C)(C)O)n1 [MK1775] (first compound 0.2 µM, partner dose 0.02 µM) | – | 96.9% | 138% | 165% | 116% | 99.4% | 121% | 113% | 128% | 89% |
| N#CC[C@H](C1CCCC1)n1cc(-c2ncnc3[nH]ccc23)cn1 [ruxolitinib] + OCCn1cc(-c2cnc3nnn(Cc4ccc5ncccc5c4)c3n2)cn1 [PF04217903] (first compound 1 µM, partner dose 1 µM) | – | 70.4% | 283% | 114% | 81% | 82.1% | 104% | 93.4% | 138% | 115% |
| O=C(Nc1cc(C(F)(F)F)cc(C(F)(F)F)c1)c1cc(Cl)ccc1O + Nc1ncn([C@H]2C[C@H](O)[C@@H](CO)O2)c(=O)n1 [decitabine] (first compound 0.016 µM, partner dose 0.1 µM) | – | 101% | 159% | 225% | 69.4% | 117% | 115% | 124% | 118% | – |
| CC[C@]1(O)C[C@H]2CN(CCc3c([nH]c4ccccc34)[C@@](C(=O)OC)(c3cc4c(cc3OC)N(C=O)[C@H]3[C@@](O)(C(=O)OC)[C@H](OC(C)=O)[C@]5(CC)C=CCN6CC[C@]43[C@@H]65)C2)C1 [vincristine] + C=C(c1ccc(C(=O)O)cc1)c1cc2c(cc1C)C(C)(C)CCC2(C)C [Bexarotene] (first compound 0.0001 µM, partner dose 2 µM) | – | 247% | 381% | 94% | 116% | 111% | 38.9% | 108% | 320% | – |
| N#CC[C@H](C1CCCC1)n1cc(-c2ncnc3[nH]ccc23)cn1 [ruxolitinib] + COc1cc2ncnc(Nc3ccc(Oc4ccccc4)cc3)c2cc1OC [SrcI1] (first compound 1 µM, partner dose 2 µM) | 67.2% | 16.9% | 98.3% | 39.7% | 89.3% | 95.8% | 140% | 88.4% | – | – |
| CCCCCCCCCCCCCCCCCCOP(=O)([O-])OC1CC[N+](C)(C)CC1 [Perifosine] + Cn1cncc1[C@@](N)(c1ccc(Cl)cc1)c1ccc2c(c1)c(-c1cccc(Cl)c1)cc(=O)n2C [tipifarnib] (first compound 0.4 µM, partner dose 0.01 µM) | – | 86.8% | 40.2% | 17.1% | 215% | 112% | 237% | 231% | 1760% | 175% |
| N#CC[C@H](C1CCCC1)n1cc(-c2ncnc3[nH]ccc23)cn1 [ruxolitinib] + O=S(=O)(c1ccccc1)N(CC(F)(F)F)c1ccc(C(O)(C(F)(F)F)C(F)(F)F)cc1 [T0901317] (first compound 1 µM, partner dose 1.4 µM) | 125% | 21.3% | 52.3% | 50.7% | 104% | 83.3% | 39.8% | 107% | – | – |
| O=C(Nc1cc(C(F)(F)F)cc(C(F)(F)F)c1)c1cc(Cl)ccc1O + C=CCn1c(=O)c2cnc(Nc3ccc(N4CCN(C)CC4)cc3)nc2n1-c1cccc(C(C)(C)O)n1 [MK1775] (first compound 0.016 µM, partner dose 0.02 µM) | – | 102% | 94.4% | 29.9% | 54.2% | 123% | 275% | 120% | 233% | 131% |
